{
  "source": "the supplement of paper PMC6411743",
  "experiment_in_all_cases": "NP40-soluble protein abundance relative to vehicle (solubility fold change) (ratio); higher = more soluble protein in presence of GTP",
  "key": {"AATF": {"biological_target": "T1, AATF (UniProt Q9NY61)", "T1 sequence (whole entry)": "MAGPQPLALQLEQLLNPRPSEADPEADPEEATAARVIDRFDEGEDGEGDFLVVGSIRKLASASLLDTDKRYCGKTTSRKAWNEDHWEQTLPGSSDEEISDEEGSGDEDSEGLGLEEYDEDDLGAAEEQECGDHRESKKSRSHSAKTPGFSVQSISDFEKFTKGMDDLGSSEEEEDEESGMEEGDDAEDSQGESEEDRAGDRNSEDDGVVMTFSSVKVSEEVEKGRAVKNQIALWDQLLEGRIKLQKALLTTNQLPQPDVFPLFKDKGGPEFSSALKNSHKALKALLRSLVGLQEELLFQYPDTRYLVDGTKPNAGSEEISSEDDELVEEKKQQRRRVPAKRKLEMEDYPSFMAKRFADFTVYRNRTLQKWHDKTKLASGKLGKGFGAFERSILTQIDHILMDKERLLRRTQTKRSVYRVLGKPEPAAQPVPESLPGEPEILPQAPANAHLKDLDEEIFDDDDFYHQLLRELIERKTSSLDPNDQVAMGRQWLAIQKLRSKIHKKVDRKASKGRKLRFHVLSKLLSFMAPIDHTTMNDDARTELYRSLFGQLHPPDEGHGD", "method_in_brief": "(§1)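 Jurkat crude lysate prepared with a Dounce homogeniser was treated at eight concentrations spanning 0.1 to 10 mM, 10 min at room temperature then 3 min at 37 °C. Solubilisation with 0.8% NP40 and benzonase and ultracentrifugation preceded TMT labelling of the supernatant for LC-MS/MS. Fold change against the detergent-processed vehicle was determined per replicate from vsn-normalised intensities, across three independent experiments.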"}, "ATXN10": {"biological_target": "T2, ATXN10 (UniProt Q9UBB4)", "T2 sequence (whole entry)": "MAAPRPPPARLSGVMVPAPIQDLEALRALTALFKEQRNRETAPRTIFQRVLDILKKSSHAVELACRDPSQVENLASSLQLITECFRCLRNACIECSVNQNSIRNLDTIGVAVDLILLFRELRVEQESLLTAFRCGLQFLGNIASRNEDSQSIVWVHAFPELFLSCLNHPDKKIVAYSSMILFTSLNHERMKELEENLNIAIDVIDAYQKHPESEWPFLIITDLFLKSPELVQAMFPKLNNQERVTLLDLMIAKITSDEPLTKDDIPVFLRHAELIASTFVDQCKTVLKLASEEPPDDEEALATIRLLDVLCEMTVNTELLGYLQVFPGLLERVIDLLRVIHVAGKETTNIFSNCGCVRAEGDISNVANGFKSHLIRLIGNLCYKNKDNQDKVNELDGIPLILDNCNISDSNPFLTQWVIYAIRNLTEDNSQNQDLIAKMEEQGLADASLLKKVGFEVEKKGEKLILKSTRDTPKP", "method_in_brief": "as §1"}, "GGA2": {"biological_target": "T3, GGA2 (UniProt Q9UJY4)", "T3 sequence (whole entry)": "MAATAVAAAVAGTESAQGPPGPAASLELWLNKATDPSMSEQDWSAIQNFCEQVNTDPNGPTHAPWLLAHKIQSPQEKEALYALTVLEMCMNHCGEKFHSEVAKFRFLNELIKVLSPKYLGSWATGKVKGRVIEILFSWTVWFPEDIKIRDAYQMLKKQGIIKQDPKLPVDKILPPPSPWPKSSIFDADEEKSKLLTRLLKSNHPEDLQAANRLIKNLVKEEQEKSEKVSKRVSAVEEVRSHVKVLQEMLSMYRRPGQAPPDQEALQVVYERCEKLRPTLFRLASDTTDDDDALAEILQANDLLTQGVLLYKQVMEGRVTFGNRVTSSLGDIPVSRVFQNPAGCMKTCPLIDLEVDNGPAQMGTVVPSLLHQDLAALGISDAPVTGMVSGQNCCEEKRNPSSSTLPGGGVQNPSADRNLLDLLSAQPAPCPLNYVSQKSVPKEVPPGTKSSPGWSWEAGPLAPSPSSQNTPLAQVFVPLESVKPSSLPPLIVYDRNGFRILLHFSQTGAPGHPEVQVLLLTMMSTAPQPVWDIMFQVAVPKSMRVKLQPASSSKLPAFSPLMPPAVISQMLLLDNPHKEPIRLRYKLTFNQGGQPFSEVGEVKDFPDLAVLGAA", "method_in_brief": "as §1"}, "MED17": {"biological_target": "T4, MED17 (UniProt Q9NVC6)", "T4 sequence (whole entry)": "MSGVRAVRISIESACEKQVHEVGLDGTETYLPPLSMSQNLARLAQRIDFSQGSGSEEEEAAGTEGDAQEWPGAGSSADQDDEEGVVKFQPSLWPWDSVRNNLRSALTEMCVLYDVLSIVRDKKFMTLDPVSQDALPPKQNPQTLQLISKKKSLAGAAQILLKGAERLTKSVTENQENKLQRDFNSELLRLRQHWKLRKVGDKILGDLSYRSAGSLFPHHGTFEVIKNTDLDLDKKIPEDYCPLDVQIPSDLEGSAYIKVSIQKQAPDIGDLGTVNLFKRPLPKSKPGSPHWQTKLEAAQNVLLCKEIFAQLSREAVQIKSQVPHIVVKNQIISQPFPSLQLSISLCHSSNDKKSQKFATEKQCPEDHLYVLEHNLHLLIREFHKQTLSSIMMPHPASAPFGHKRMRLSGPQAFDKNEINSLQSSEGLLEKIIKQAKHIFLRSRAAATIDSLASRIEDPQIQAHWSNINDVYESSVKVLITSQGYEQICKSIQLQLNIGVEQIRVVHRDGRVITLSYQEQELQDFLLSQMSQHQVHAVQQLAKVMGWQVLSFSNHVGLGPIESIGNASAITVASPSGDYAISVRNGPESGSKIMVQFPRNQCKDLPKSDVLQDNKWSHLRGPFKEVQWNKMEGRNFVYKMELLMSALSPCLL", "method_in_brief": "as §1"}},
  "note": "± gives the standard deviation of the averaged measurements. This is one part of the list.",
  "data": [
    {"smiles": "Nc1nc2c(ncn2[C@@H]2O[C@H](COP(=O)(O)OP(=O)(O)OP(=O)(O)O)[C@@H](O)[C@H]2O)c(=O)[nH]1", "note": "[guanosine triphosphate]", "values": [
      {"measurement": "NP40-soluble protein abundance", "setting": "AATF; concentration: 0.1mM", "result": "0.928 ± 0.17"},
      {"measurement": "NP40-soluble protein abundance", "setting": "AATF; concentration: 0.5mM", "result": "0.957 ± 0.15"},
      {"measurement": "NP40-soluble protein abundance", "setting": "AATF; concentration: 1mM", "result": "1.01 ± 0.17"},
      {"measurement": "NP40-soluble protein abundance", "setting": "AATF; concentration: 2mM", "result": "1.03 ± 0.21"},
      {"measurement": "NP40-soluble protein abundance", "setting": "AATF; concentration: 4mM", "result": "1.13 ± 0.23"},
      {"measurement": "NP40-soluble protein abundance", "setting": "AATF; concentration: 6mM", "result": "1.15 ± 0.26"},
      {"measurement": "NP40-soluble protein abundance", "setting": "AATF; concentration: 8mM", "result": "1.16 ± 0.21"},
      {"measurement": "NP40-soluble protein abundance", "setting": "AATF; concentration: 10mM", "result": "1.29 ± 0.33"},
      {"measurement": "NP40-soluble protein abundance", "setting": "ATXN10; concentration: 0.1mM", "result": "0.968 ± 0.014"},
      {"measurement": "NP40-soluble protein abundance", "setting": "ATXN10; concentration: 0.5mM", "result": "0.965 ± 0.022"},
      {"measurement": "NP40-soluble protein abundance", "setting": "ATXN10; concentration: 1mM", "result": "0.928 ± 0.03"},
      {"measurement": "NP40-soluble protein abundance", "setting": "ATXN10; concentration: 2mM", "result": "0.9 ± 0.045"},
      {"measurement": "NP40-soluble protein abundance", "setting": "ATXN10; concentration: 4mM", "result": "0.892 ± 0.046"},
      {"measurement": "NP40-soluble protein abundance", "setting": "ATXN10; concentration: 6mM", "result": "0.886 ± 0.042"},
      {"measurement": "NP40-soluble protein abundance", "setting": "ATXN10; concentration: 8mM", "result": "0.866 ± 0.061"},
      {"measurement": "NP40-soluble protein abundance", "setting": "ATXN10; concentration: 10mM", "result": "0.855 ± 0.064"},
      {"measurement": "NP40-soluble protein abundance", "setting": "GGA2; concentration: 0.1mM", "result": "1.02 ± 0.097"},
      {"measurement": "NP40-soluble protein abundance", "setting": "GGA2; concentration: 0.5mM", "result": "0.916 ± 0.067"},
      {"measurement": "NP40-soluble protein abundance", "setting": "GGA2; concentration: 1mM", "result": "0.979 ± 0.12"},
      {"measurement": "NP40-soluble protein abundance", "setting": "GGA2; concentration: 2mM", "result": "0.971 ± 0.1"},
      {"measurement": "NP40-soluble protein abundance", "setting": "GGA2; concentration: 4mM", "result": "0.977 ± 0.11"},
      {"measurement": "NP40-soluble protein abundance", "setting": "GGA2; concentration: 6mM", "result": "0.934 ± 0.1"},
      {"measurement": "NP40-soluble protein abundance", "setting": "GGA2; concentration: 8mM", "result": "0.972 ± 0.12"},
      {"measurement": "NP40-soluble protein abundance", "setting": "GGA2; concentration: 10mM", "result": "0.927 ± 0.094"},
      {"measurement": "NP40-soluble protein abundance", "setting": "MED17; concentration: 0.1mM", "result": "1.073 ± 0.0088"},
      {"measurement": "NP40-soluble protein abundance", "setting": "MED17; concentration: 0.5mM", "result": "1.1 ± 0.053"},
      {"measurement": "NP40-soluble protein abundance", "setting": "MED17; concentration: 1mM", "result": "1.09 ± 0.075"},
      {"measurement": "NP40-soluble protein abundance", "setting": "MED17; concentration: 2mM", "result": "1.14 ± 0.14"},
      {"measurement": "NP40-soluble protein abundance", "setting": "MED17; concentration: 4mM", "result": "1.18 ± 0.14"},
      {"measurement": "NP40-soluble protein abundance", "setting": "MED17; concentration: 6mM", "result": "1.15 ± 0.17"},
      {"measurement": "NP40-soluble protein abundance", "setting": "MED17; concentration: 8mM", "result": "1.18 ± 0.19"},
      {"measurement": "NP40-soluble protein abundance", "setting": "MED17; concentration: 10mM", "result": "1.14 ± 0.16"}
    ]}
  ]
}
